Data reported in PMC9776959.

Amino acid sequences for entries named in this document (tags omitted).
UniProt Q12834: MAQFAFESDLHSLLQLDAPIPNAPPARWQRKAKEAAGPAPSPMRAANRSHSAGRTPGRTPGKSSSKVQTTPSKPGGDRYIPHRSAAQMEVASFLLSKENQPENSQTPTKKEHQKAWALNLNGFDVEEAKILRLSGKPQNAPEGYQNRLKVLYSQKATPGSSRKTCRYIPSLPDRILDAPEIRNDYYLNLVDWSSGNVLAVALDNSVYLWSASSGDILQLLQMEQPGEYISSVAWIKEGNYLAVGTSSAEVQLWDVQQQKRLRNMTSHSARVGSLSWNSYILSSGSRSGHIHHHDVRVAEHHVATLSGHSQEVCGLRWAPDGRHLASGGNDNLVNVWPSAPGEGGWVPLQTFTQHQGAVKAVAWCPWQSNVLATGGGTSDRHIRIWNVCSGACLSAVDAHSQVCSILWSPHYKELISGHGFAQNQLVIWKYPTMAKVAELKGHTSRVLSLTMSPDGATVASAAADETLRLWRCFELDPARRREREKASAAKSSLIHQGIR
UniProt Q13257: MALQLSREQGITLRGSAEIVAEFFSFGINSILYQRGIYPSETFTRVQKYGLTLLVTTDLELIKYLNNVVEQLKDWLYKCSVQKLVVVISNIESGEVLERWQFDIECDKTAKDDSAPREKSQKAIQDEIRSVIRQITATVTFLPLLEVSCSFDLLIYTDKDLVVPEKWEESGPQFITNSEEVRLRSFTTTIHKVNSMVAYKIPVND
UniProt O60934: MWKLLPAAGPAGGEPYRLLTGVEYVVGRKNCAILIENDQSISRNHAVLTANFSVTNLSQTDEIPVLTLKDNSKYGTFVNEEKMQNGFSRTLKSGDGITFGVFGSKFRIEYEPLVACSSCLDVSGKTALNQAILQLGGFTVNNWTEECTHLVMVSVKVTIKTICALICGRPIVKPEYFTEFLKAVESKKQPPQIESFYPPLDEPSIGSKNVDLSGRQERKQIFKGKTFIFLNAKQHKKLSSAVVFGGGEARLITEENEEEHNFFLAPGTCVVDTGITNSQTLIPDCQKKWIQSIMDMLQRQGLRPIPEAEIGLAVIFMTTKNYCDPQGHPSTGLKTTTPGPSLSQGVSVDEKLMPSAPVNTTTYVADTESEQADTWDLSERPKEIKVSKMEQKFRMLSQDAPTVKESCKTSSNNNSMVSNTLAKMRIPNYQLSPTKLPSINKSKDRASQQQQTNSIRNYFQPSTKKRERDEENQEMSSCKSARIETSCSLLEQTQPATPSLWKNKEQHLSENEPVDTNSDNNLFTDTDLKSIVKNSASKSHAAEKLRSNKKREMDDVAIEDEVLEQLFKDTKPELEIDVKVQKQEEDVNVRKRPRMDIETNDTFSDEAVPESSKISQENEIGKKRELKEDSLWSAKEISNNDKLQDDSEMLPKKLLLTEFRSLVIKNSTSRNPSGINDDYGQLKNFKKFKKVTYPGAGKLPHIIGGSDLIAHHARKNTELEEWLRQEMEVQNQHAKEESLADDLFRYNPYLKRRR
UniProt Q92878: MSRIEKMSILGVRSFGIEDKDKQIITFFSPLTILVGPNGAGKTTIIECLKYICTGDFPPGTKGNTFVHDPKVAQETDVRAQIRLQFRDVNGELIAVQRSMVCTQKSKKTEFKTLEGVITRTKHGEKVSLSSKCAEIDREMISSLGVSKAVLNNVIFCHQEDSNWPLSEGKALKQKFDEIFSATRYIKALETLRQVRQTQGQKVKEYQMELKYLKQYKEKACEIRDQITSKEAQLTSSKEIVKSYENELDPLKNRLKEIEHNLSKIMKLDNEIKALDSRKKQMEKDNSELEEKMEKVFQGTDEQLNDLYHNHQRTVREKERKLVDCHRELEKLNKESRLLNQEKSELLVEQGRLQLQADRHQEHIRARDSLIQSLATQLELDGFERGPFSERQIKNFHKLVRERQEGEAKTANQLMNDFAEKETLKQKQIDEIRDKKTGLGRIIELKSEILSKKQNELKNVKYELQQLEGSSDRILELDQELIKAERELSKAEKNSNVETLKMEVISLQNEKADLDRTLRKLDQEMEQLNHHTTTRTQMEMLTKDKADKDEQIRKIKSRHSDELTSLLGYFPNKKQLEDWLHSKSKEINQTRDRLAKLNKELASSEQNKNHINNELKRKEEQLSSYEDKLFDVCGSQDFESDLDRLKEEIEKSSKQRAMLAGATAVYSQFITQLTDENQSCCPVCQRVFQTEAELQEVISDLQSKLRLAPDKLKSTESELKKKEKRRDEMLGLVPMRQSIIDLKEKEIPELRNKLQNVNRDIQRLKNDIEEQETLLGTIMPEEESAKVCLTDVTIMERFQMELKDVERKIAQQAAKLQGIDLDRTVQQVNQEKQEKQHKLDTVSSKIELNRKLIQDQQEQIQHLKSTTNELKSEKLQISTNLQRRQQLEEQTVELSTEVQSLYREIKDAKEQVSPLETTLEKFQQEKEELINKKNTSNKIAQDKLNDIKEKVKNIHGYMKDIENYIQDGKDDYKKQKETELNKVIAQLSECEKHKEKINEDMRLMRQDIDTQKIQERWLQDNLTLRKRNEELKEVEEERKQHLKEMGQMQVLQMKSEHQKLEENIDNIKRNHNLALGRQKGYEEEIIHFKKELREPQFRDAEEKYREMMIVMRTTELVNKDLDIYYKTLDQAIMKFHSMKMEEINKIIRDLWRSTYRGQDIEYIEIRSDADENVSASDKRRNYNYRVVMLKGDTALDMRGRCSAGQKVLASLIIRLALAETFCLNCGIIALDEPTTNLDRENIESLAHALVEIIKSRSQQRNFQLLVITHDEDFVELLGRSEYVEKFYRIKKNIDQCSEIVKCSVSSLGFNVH

How the values were obtained:
[1] = molecular target: T1, Myc-BioID2-TRIP13 (human) (UniProt Q15645); assay: proximity labelling; biotin pulldown from BioID2-TRIP13-expressing U-2-OS cells (doxycycline induced), Western blot; with or without CPT for one hour
T1 sequence: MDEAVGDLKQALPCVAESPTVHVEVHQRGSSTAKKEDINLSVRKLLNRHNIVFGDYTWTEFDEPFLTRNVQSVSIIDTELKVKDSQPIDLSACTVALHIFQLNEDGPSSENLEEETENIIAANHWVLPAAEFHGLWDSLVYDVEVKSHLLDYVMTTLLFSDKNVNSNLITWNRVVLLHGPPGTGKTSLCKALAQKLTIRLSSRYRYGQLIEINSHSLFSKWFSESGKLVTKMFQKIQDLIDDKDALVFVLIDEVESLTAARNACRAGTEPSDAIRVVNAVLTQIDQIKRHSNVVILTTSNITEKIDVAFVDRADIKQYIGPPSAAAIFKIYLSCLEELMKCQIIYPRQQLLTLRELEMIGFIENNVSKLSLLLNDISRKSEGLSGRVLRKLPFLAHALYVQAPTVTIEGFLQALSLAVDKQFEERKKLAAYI

[2] = molecular target: T1, Myc-BioID2-TRIP13 (human); assay: proximity labelling; BioID2 proximity labelling with SILAC quantitative mass spectrometry; Myc-BioID2-TRIP13 against Myc-BioID2 alone; without induced DNA damage

Molecule: CDC20 (from UniProt Q12834 1-499)
binding [1]: binds

Molecule: MAD2 (from UniProt Q13257 1-205)
binding [1]: binds

Molecule: NBS1 (from UniProt O60934 1-754)
binding [2]: no binding

Results, then the molecule that gave them:

binding [1]: binds
Molecule: RAD50 (from UniProt Q92878 1-1312)

binding [1]: binds
B1: p31comet (protein, UniProt Q15013 1-274)
chain: MAAPEAEVLSSAAVPDLEWYEKSEETHASQIELLETSSTQEPLNASEAFCPRDCMVPVVFPGPVSQEGCCQFTCELLKHIMYQRQQLPLPYEQLKHFYRKPSPQAEEMLKKKPRATTEVSSRKCQQALAELESVLSHLEDFFARTLVPRVLILLGGNALSPKEFYELDLSLLAPYSVDQSLSTAACLRRLFRAIFMADAFSELQAPPLMGTVVMAQGHRNCGEDWFRPKLNYRVPSRGHKLTVTLSCGRPSIRTTAWEDYIWFQAPVTFKGFRE

No constants are given. Whether binding was seen depends on the method and setting. Binding seen in cells or lysates may run through a third protein. A yes stands for co-enrichment or nearness to the bait. Other partners may have been found. For some assays here: No binding means not detected with the bait. Sequences can lack the tags named with a protein. One block for each molecule: values may come before it.
